Literature values as cited in patent US11202773B2, “Locally bioavailable drugs” (UNIVERSITY OF HOUSTON SYSTEM, priority 2015, dated 2021).
Some entries share one result that the patent states for a list of compounds.

Details: due to extensive glucuronidation and significant sulfonation; cited from earlier work

Row | SMILES | Systemic bioavailability
1 | O=C(c1ccc(OCCN2CCCCC2)cc1)c1c(-c2ccc(O)cc2)sc2cc(O)ccc12 [Raloxifene] | less than 10%
2 | O=c1c(-c2ccc(O)cc2)coc2cc(O)cc(O)c12 [Genistein] | less than 10%
